Experiment [1] addresses T1, SH3-like domain of MIA (spotted on TransSignal SH3 Domain Array III, Panomics) (UniProt Q16674).
T1 sequence (looked up): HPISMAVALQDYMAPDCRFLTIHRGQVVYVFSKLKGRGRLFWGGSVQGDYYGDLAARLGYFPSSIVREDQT
Kind of experiment: far-Western blotting of an SH3 domain array.

Experiment [2] addresses T2, Melanoma Inhibitory Activity (MIA) (human) (UniProt Q16674).
T2 sequence (looked up): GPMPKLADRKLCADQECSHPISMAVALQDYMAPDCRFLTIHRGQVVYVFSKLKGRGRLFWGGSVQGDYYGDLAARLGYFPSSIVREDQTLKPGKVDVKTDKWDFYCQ
Kind of experiment: co-precipitation from COS7 cells.

Results are given in words; binding and its absence hold for the method and conditions named. For some assays here: In cells and extracts the contact can be indirect. Some binding calls cover weakened binding; strength is not graded here. For some assays here: Where a sequence is shown, tags or fusion partners need not be part of it.

Binding data for 2 molecules are collected here from US20080248574A1, “ANTAGONISTS OF THE INTERACTION OF MELANOMA INHIBITORY ACTIVITY (MIA) AND P66SHC” (University of Pittsburgh - Of the Commonwealth System of …, priority 2007, published 2008).

B1: Recombinant (His)6-tagged CH2 domain of p66shc (protein, not shown: small tags and cut ends)
chain: MNLLPPKPKYNPLRNESLSSMEEGASGSTPPEELPSPPASSLGPILPPLPGDDSPTTLCSFFPRMSNLRLANPAGGRPGSKGEPGRAADDGEGIVGAAMPDSGPLPLLQD
On to B1, for which, in experiment [1], the binding result was “binds”.

B2: isolated CH2 domain of p66shc expressed in COS7 cells (protein)
chain: B1 chain
With B2, in experiment [2], the binding entry was “binds”.
